Source: PubChem BioAssay AID686938 (Drosophila RNAi Screening Center, 2013)

Test: 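Fly genes required for calcium entry once internal stores are emptied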 (primary screen)
Cell system: Drosophila S2R+ cells
Reagent: long dsRNA against Drosophila genes, about 0.25 µg dsRNA per well, roughly 10,000 cells
Timing: 5 days of knock-down before the calcium assay
Challenge: thapsigargin (SERCA pump blocker) to empty calcium stores; entry signal taken 4 min after adding it
Measured: 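Per-well fluo-4 fluorescence in two replicates, unnormalised, measured in resting cells and 4 min after store depletion by the SERCA blocker thapsigargin; ratio of the two present in few wells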
Scale: calcium entry signal: higher = stronger calcium signal after store depletion; resting calcium signal: higher = higher resting calcium signal
Rule for the call: 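Hit if the duplicate-averaged plate z-score for entry over resting signal is under −3; wells with weak total dye signal (Fmax z < −2) or more than 5 off-targets removed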
Meaning of the calls: active = strongly reduced calcium entry; inactive = no strong reduction
The screen tested about 23,000 reagents; shown is an unselected part of those that have a named target and a result. Over the whole deposit, 75 (0.33%) are marked active. 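Raw plate signals without normalisation; calls rest on plate z-scores that were not deposited; ratio present for only 364 wells.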 A plus sign joins genes that one reagent is predicted to hit. The record does not give: the dose of the treatment.

CG1631 (GeneID 33029) [DRSC20535] | calcium entry signal, replicate 1 (fluorescence units): 5.56e7; calcium entry signal, replicate 2 (fluorescence units): 5.02e7; resting calcium signal, replicate 1 (fluorescence units): 2.61e7; resting calcium signal, replicate 2 (fluorescence units): 2.02e7; activity call: inactive
raptor (GeneID 31543) [DRSC18359] | calcium entry signal, replicate 1 (fluorescence units): 2.69e7; calcium entry signal, replicate 2 (fluorescence units): 3.35e7; resting calcium signal, replicate 1 (fluorescence units): 1.53e7; resting calcium signal, replicate 2 (fluorescence units): 1.92e7; activity call: inactive
Miga (GeneID 31775) [DRSC17821] | calcium entry signal, replicate 1 (fluorescence units): 3.16e7; calcium entry signal, replicate 2 (fluorescence units): 4.06e7; resting calcium signal, replicate 1 (fluorescence units): 1.63e7; resting calcium signal, replicate 2 (fluorescence units): 1.89e7; activity call: inactive
CG13720 (GeneID 38557) [DRSC08329] | calcium entry signal, replicate 1 (fluorescence units): 2.14e7; calcium entry signal, replicate 2 (fluorescence units): 3.11e7; resting calcium signal, replicate 1 (fluorescence units): 1.19e7; resting calcium signal, replicate 2 (fluorescence units): 1.51e7; activity call: inactive
Ir52d (GeneID 36716) [DRSC06264] | calcium entry signal, replicate 1 (fluorescence units): 3.53e7; calcium entry signal, replicate 2 (fluorescence units): 3.30e7; resting calcium signal, replicate 1 (fluorescence units): 1.85e7; resting calcium signal, replicate 2 (fluorescence units): 1.54e7; activity call: inactive
mrj (GeneID 36797) [DRSC22592] | calcium entry signal, replicate 1 (fluorescence units): 3.86e7; calcium entry signal, replicate 2 (fluorescence units): 4.44e7; resting calcium signal, replicate 1 (fluorescence units): 1.82e7; resting calcium signal, replicate 2 (fluorescence units): 1.90e7; activity call: inactive
CCHa2 (GeneID 41648) [DRSC14835] | calcium entry signal, replicate 1 (fluorescence units): 2.87e7; calcium entry signal, replicate 2 (fluorescence units): 5.03e7; resting calcium signal, replicate 1 (fluorescence units): 1.51e7; resting calcium signal, replicate 2 (fluorescence units): 2.33e7; activity call: inactive
BORCS7 + CG13430 [DRSC06392] | calcium entry signal, replicate 1 (fluorescence units): 3.65e7; calcium entry signal, replicate 2 (fluorescence units): 3.65e7; resting calcium signal, replicate 1 (fluorescence units): 1.69e7; resting calcium signal, replicate 2 (fluorescence units): 1.78e7; activity call: inactive
BORCS7 + CG13430 [DRSC06707] | calcium entry signal, replicate 1 (fluorescence units): 1.89e7; calcium entry signal, replicate 2 (fluorescence units): 2.81e7; resting calcium signal, replicate 1 (fluorescence units): 1.07e7; resting calcium signal, replicate 2 (fluorescence units): 1.24e7; activity call: inactive
CG12224 (GeneID 41453) [DRSC14480] | calcium entry signal, replicate 1 (fluorescence units): 4.55e7; calcium entry signal, replicate 2 (fluorescence units): 3.72e7; resting calcium signal, replicate 1 (fluorescence units): 2.08e7; resting calcium signal, replicate 2 (fluorescence units): 1.86e7; activity call: inactive
synr (GeneID 33702) [DRSC02369] | calcium entry signal, replicate 1 (fluorescence units): 2.68e7; calcium entry signal, replicate 2 (fluorescence units): 3.07e7; resting calcium signal, replicate 1 (fluorescence units): 1.32e7; resting calcium signal, replicate 2 (fluorescence units): 1.24e7; activity call: inactive
Clc (GeneID 40221) [DRSC11116] | calcium entry signal, replicate 1 (fluorescence units): 2.74e7; calcium entry signal, replicate 2 (fluorescence units): 4.31e7; resting calcium signal, replicate 1 (fluorescence units): 1.28e7; resting calcium signal, replicate 2 (fluorescence units): 2.99e7; activity call: inactive
Tpi (GeneID 43582) [DRSC16888] | calcium entry signal, replicate 1 (fluorescence units): 2.66e7; calcium entry signal, replicate 2 (fluorescence units): 4.58e7; resting calcium signal, replicate 1 (fluorescence units): 1.32e7; resting calcium signal, replicate 2 (fluorescence units): 2.01e7; activity call: inactive
CG17192 (GeneID 43248) [DRSC15186] | calcium entry signal, replicate 1 (fluorescence units): 3.90e7; calcium entry signal, replicate 2 (fluorescence units): 5.23e7; resting calcium signal, replicate 1 (fluorescence units): 1.86e7; resting calcium signal, replicate 2 (fluorescence units): 2.17e7; activity call: inactive
Opa1 (GeneID 36578) [DRSC07191] | calcium entry signal, replicate 1 (fluorescence units): 3.15e7; calcium entry signal, replicate 2 (fluorescence units): 4.59e7; resting calcium signal, replicate 1 (fluorescence units): 1.37e7; resting calcium signal, replicate 2 (fluorescence units): 2.10e7; activity call: inactive
CG32450 (GeneID 318034) [DRSC11546] | calcium entry signal, replicate 1 (fluorescence units): 5.17e7; calcium entry signal, replicate 2 (fluorescence units): 4.12e7; resting calcium signal, replicate 1 (fluorescence units): 2.38e7; resting calcium signal, replicate 2 (fluorescence units): 1.89e7; activity call: inactive
FASN2 (GeneID 117361) [DRSC00167] | calcium entry signal, replicate 1 (fluorescence units): 4.13e7; calcium entry signal, replicate 2 (fluorescence units): 4.40e7; resting calcium signal, replicate 1 (fluorescence units): 1.99e7; resting calcium signal, replicate 2 (fluorescence units): 1.92e7; activity call: inactive
FASN2 (GeneID 117361) [DRSC00610] | calcium entry signal, replicate 1 (fluorescence units): 4.45e7; resting calcium signal, replicate 1 (fluorescence units): 2.56e7; activity call: inactive
CG12213 (GeneID 41447) [DRSC14478] | calcium entry signal, replicate 1 (fluorescence units): 2.82e7; calcium entry signal, replicate 2 (fluorescence units): 5.72e7; resting calcium signal, replicate 1 (fluorescence units): 1.29e7; resting calcium signal, replicate 2 (fluorescence units): 3.02e7; activity call: inactive
CG12213 (GeneID 41447) [DRSC22109] | calcium entry signal, replicate 1 (fluorescence units): 3.83e7; calcium entry signal, replicate 2 (fluorescence units): 5.72e7; resting calcium signal, replicate 1 (fluorescence units): 1.80e7; resting calcium signal, replicate 2 (fluorescence units): 3.06e7; activity call: inactive
EMC6 (GeneID 42992) [DRSC14386] | calcium entry signal, replicate 1 (fluorescence units): 4.41e7; calcium entry signal, replicate 2 (fluorescence units): 6.59e7; resting calcium signal, replicate 1 (fluorescence units): 1.86e7; resting calcium signal, replicate 2 (fluorescence units): 2.41e7; activity call: inactive

Not a retest: 3 of the entries above.
FASN2 (GeneID 117361) [DRSC00167] | calcium entry signal, replicate 1 (fluorescence units): 4.13e7; calcium entry signal, replicate 2 (fluorescence units): 4.40e7; resting calcium signal, replicate 1 (fluorescence units): 1.99e7; resting calcium signal, replicate 2 (fluorescence units): 1.92e7; activity call: inactive
FASN2 (GeneID 117361) [DRSC00610] | calcium entry signal, replicate 1 (fluorescence units): 4.45e7; resting calcium signal, replicate 1 (fluorescence units): 2.56e7; activity call: inactive
CG12213 (GeneID 41447) [DRSC14478] | calcium entry signal, replicate 1 (fluorescence units): 2.82e7; calcium entry signal, replicate 2 (fluorescence units): 5.72e7; resting calcium signal, replicate 1 (fluorescence units): 1.29e7; resting calcium signal, replicate 2 (fluorescence units): 3.02e7; activity call: inactive
